We go through 18 molecules from PubChem BioAssay AID901 (National Center for Advancing Translational Sciences (NCATS), 2007).

The structures appear in SMILES notation. Some of the results follow. Shown are side measurements of this screen, not its main read-out; they come without a call. Compounds called inactive in the main read-out are mostly missing here. The note in brackets gives the kind of curve behind each potency; many fits are weak.

By AC50 is commonly meant the midpoint of the concentration-response curve, whichever way the signal moves.

The assay in a line: qHTS Assay for Identifying the Cell-Membrane Permeable IMPase Inhibitors. Conditions: CHO-M1 cells, IP1 accumulation, HTRF TR-FRET ratio; measured here: donor channel 620 nm AC50. For orientation: In qHTS, concentration-response curves come from the screen itself.
As for `Cc1cc(C)c2cc(CN(CCN3CCCC3)C(=O)Nc3ccc(F)cc3)c(=O)[nH]c2c1`, the AC50 was 5.62 µM [rising, single point].
On to `COC(=O)c1cc2sccc2n1CC(=O)N1CCCc2ccccc21`, for which the AC50 was 0.398 µM [falling, partial curve, poor fit].
For `COc1ccccc1CNC(=O)C1CCN(Cc2nc(-c3cccc(Cl)c3)oc2C)CC1` the value was 3.98 µM [falling, partial curve, poor fit]; for `Cc1ccc(C(=O)NCCCNCCCNC(=O)c2ccc(C)nc2)cn1`, 1.58 µM [falling, partial curve].
The value for `Nc1c(C(=O)Nc2ccc(Cl)cc2F)sc2nc(-c3cccs3)ccc12` was 35.5 µM [rising, single point]; that for `COc1ccccc1Nc1nc2c(C)cccc2cc1C#N` was 3.16 µM [falling, single point]; that for `CCn1c(SCC(=O)N2CCOCC2)nc2oc3c(Cl)cc(Cl)cc3c(=O)c2c1=O` was 20 µM [rising, single point].
For `Cc1ccc(-n2c(CNc3ccc(F)cc3)nnc2SCC(=O)N2CCOCC2)cc1`, the AC50 was 10 µM [rising, partial curve].
For `CNc1cc(C)nc(-n2nc(C)cc2C)n1` the value was 25.1 µM [falling, single point]; for `CCc1ccc(OCC(=O)Nc2ncc3c(n2)CC(C)(C)CC3=O)cc1`, 10 µM [falling, partial curve, poor fit]; for `O=C(Nc1nc(=O)n(C(=O)C2CC2)s1)c1ccccc1`, 3.98 µM [falling, full curve].
For `Cc1ccc2cc(CN(Cc3cccs3)Cc3nnnn3CC3CCCO3)c(=O)[nH]c2c1` (stereo not drawn) the value was 0.00501 µM [falling, full curve, poor fit].
Take `CCOc1ccccc1NC(=O)CN1C(=O)C(=O)c2ccccc21`: the AC50 was 0.00631 µM [rising, full curve].
For `COCCN(C(=O)Cn1nnc2ccccc21)C(C(=O)NC1CCCC1)c1ccc(OC)cc1OC` (stereo not drawn) the value was 3.55 µM [falling, full curve, poor fit]; for `COC(=O)C(O)(CC(=O)Nc1cc(Cl)ccc1Cl)C(F)(F)F` (stereo not drawn), 0.02 µM [falling, full curve, poor fit]; for `COc1ccc(N(CC(=O)Nc2ccc(S(=O)(=O)N3CCOCC3)cc2)S(=O)(=O)c2ccccc2)cc1`, 3.16 µM [falling, partial curve].
For `CCc1cccc(NC(=O)c2ccc(Br)o2)c1` the value was 6.31 µM [falling, single point]; for `Brc1ccc(-c2nc3ccccc3s2)s1`, 15.8 µM [rising, partial curve].
